We go through one molecule from PMC6358605.

In this test the target is Full-length wild-type Chinese hamster BiP (Chinese hamster). The test can be described thus: fluorescence polarisation; 40 µM BiP incubated with 1.5 µM LY-labeled peptide and 0.5 mM ADP overnight at room temperature in FP buffer; dissociation then induced with 4 mM ATP, with or without MANF proteins; both purified. A general note: In fluorescence polarisation assays a small probe gives low polarisation when free and higher when bound to something large.

Results are given in words; binding and its absence hold for the method and conditions named. Binding can be weak; no strength is given. Where a sequence is shown, tags or fusion partners need not be part of it.

B1: lucifer yellow (LY)-labeled substrate peptide (peptide)
peptide: HTFPAVLGSC
modifications: lucifer yellow (LY) label
Take B1: the binding entry is reported as “binds”.
